For some of these results: The amount applied is not stated for every result. [ ]: non-standard residue; d: D form. The star is where a group is joined. Tos = Cc1ccc(S(=O)(=O)*)cc1; Cbz = O=C(OCc1ccccc1)*; Bn = c1ccc(C*)cc1

The first series is described as follows: general procedure: solution-phase peptide synthesis; p-nitrophenyl (ONp) active esters; azide fragment coupling (hydrazide with isoam).
Conditions: not given
“Cbz--Asn--Asn--Cys(Bzl)--Pro--D--Arg(Tos)--Gly.NH2” showed a step yield of 83%.

Take “Cbz--Asn--Gln--Cys(SBzl)--Pro--D--Arg(Tos)--Gly--NH2”: the step yield was determined as 74%. Consider Cbz-C(Bn)P[dR](Tos)G-NH2, for which the step yield came out at 88%. Same read-out and setting: under Cbz-NC(Bn)P[dR](Tos)G-NH2 stands 72%. In the case of Cbz-QQC(Bn)P[dR](Tos)G-NH2, the step yield came out at 87%. The same measure, in the same setting: as for “Gbz--Gln--Cys(SBzl)--Pro--D--Arg(Tos)--Gly--NH2”, the figure is 63%; as for “Mep(Bzl)--Phe--Asn--Asn--Cys(Bzl)--Pro--D--Arg(Tos)--Gly--NH2”, 79%. On the same count and under the same terms, as for “Mep(SBzl)--Tyr--Phe--Asn--Gln--Cys(SBzl)--Pro--D--Arg(Tos)--Gly--NH2”, the figure is 35%; as for “Mep(SBzl)--Tyr--Phe--Gln--Gln--Cys(SBzl)--Pro--D--Arg(Tos)--Gly--NH2”, 53%.

The nature of a further series: Relative antidiuretic activity in relation to DDAVP. Type of series: in vivo. Particulars: ratio of relative activities, DDAVP = 1.00. An excerpt:
Thus, the strenghts in Table I are expressed as relative activity figures, data for DDAVP as a comparative compound being arbitrarily set at 1.00.
In the case of `NC(=O)CC[C@@H]1NC(=O)[C@H](Cc2ccccc2)NC(=O)[C@H](Cc2ccc(O)cc2)NC(=O)[C@@H](N)CSSC[C@@H](C(=O)N2CCC[C@H]2C(=O)N[C@@H](CCCN=C(N)N)C(=O)NCC(N)=O)NC(=O)[C@H](CC(N)=O)NC1=O` [Arg-vasopressin, arginine-vasopressin], the “Antidiuresis / Blood pressure” value was 0.00006 and the “Antidiuresis / Uterotonic” value came out at 0.1. For `NC(=O)CC[C@@H]1NC(=O)[C@H](Cc2ccccc2)NC(=O)[C@H](Cc2ccc(O)cc2)NC(=O)CCSSC[C@@H](C(=O)N2CCC[C@H]2C(=O)N[C@H](CCCN=C(N)N)C(=O)NCC(N)=O)NC(=O)[C@H](CC(N)=O)NC1=O` [DDAVP, desamino-D-arginine^8 -vasopressin], the “Antidiuresis / Blood pressure” value stood at 1.00 and the “Antidiuresis / Uterotonic” value is recorded as 1.00.

Values taken from patent US4148787A (Ferring AB, priority 1976, dated 1979).
